This is an account of results in PMC7862700.

This is a selection; strong and weak results do not stand in their true shares. For some of these results: At the low end of the ranking the order means little. The list shows a part of the results. For some of these results: The exact form of the protein is not confirmed.

For one experiment, the target named is T1, ETS1 (UniProt P14921).
T1 sequence: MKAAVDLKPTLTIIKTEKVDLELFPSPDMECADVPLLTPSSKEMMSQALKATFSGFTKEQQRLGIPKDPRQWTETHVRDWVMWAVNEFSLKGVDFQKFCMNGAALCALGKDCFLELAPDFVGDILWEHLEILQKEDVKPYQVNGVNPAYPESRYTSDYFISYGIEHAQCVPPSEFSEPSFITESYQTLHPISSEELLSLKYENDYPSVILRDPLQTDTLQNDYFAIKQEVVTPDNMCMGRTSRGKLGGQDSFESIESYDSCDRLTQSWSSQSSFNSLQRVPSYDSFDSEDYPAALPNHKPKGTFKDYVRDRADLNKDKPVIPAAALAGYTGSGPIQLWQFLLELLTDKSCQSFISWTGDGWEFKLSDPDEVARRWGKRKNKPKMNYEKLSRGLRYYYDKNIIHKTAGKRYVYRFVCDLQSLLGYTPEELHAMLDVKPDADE
The experiment in a line: DAPPL (digital affinity profiling via proximity ligation, sequencing). Particulars: 10 mM Tris-HCl pH 7.5, 50 mM NaCl, 1 mM DTT, 4% glycerol, room temperature, 30 min; GST-TFs on glutathione beads, 16-mer random dsDNA library, 0.1% …; high values mean tight binding; double strand, one strand shown; scale: fold enrichment (6-mer frequency, TF over GST control).

A further experiment has as its target T2, SPDEF (UniProt O95238).
T2 sequence: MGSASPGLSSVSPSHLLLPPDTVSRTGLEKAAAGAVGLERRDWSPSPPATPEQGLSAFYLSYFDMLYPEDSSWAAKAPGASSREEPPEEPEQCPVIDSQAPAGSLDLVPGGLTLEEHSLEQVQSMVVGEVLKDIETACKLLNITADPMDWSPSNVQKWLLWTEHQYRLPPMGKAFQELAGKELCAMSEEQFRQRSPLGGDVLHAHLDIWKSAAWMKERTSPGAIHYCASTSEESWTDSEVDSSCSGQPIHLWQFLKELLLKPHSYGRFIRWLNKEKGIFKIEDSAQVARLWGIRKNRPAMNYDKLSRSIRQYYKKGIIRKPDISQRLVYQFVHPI
The experiment is described as above. Particulars: 10 mM Tris-HCl pH 7.5, 50 mM NaCl, 1 mM DTT, 4% glycerol, room temperature, 30 min; GST-TFs on glutathione beads, 16-mer random dsDNA library, 0.1% …; high values mean tight binding; double strand, one strand shown; scale: fold enrichment (6-mer frequency, TF over GST control).

For the sequence ACTTCA, the binding signal in the experiment with ETS1 and with SPDEF was 1.37 each time.
As to CTTAGG, the binding signal in the experiment with ETS1 worked out at 1.05; in the experiment with SPDEF it was 1.06.
On the same counts, the results for TTAGTA are 1.22 and 1.12.
With TATTCC, the binding signal was 1.53 in the experiment with ETS1 and 1.83 with SPDEF.
On to TATTCG, for which the binding signal worked out at 1.21 with ETS1 and 1.1 in the experiment with SPDEF.
Turning to ATGACA, the values for the binding signal with ETS1 and with SPDEF were 1.26 and 1.31, respectively.
In the case of TATGGC, the binding signal with ETS1 turned out to be 1.3; with SPDEF it was 1.27.
In the same order, the values of AACGAC are 1.11 and 1.16.
In the case of TATTAT, the binding signal with ETS1 was 1.43; in the experiment with SPDEF, 1.29.
ATTCTA: the binding signal with ETS1 was determined as 1.21; with SPDEF, 1.23.
Regarding AACCAT, the binding signal in the experiment with ETS1 amounted to 1.24; in the experiment with SPDEF it was 1.11.
As to TTGATT, the binding signal stood at 1.21 with ETS1 and 1.15 with SPDEF.
Consider AGGCTC, for which the values for the binding signal with ETS1 and in the experiment with SPDEF were 1.12 and 0.938, respectively.
On the same counts, the results for AAACGG are 1.22 and 1.25.
In the same order, the values of TCTCTA are 1.32 and 1.24.
GTCTTA: the binding signal was 1.26 with ETS1 and 1.17 with SPDEF.
In the case of ACTTCC, the binding signal was found to be 7.9 in the experiment with ETS1 and 8.64 in the experiment with SPDEF.
With ACAATC, the binding signal with ETS1 is 1.18; in the experiment with SPDEF, 1.16.
Regarding TCCTCC, the binding signal with ETS1 amounted to 1.62; with SPDEF, 1.61.
With CGATTG, the binding signal is 1.25 in the experiment with ETS1 and 1.22 with SPDEF.
Consider CCGGTA, for which the binding signal worked out at 1.51 with ETS1 and 1.96 with SPDEF.
On the same counts, the results for GAACTC are 1.38 and 1.33.
Regarding TCACTT, the figures for the binding signal in the experiment with ETS1 and with SPDEF were 1.78 and 1.73, respectively.
In the same order, the values of CCTATT are 1.65 and 1.51.
For the sequence ACCTCG, the results for the binding signal in the experiment with ETS1 and with SPDEF were 1.17 and 1.06, respectively.
ATGGTA: the binding signal with ETS1 is 1.47; with SPDEF, 1.31.
For TCCGGC, the binding signal came to 2.23 in the experiment with ETS1 and 3.14 with SPDEF.
As to TCGCCT, the binding signal with ETS1 stood at 1.2; with SPDEF, 1.13.
As to GAACAC, the binding signal in the experiment with ETS1 is 1.13; with SPDEF, 1.26.
On to CTCACT, for which the binding signal amounted to 1.55 in the experiment with ETS1 and 1.44 in the experiment with SPDEF.
Consider TGGTGT, for which the binding signal with ETS1 and in the experiment with SPDEF was 1.23 in each case.
For ATGTAA, the binding signal in the experiment with ETS1 was 1.43; with SPDEF, 1.32.
On to AAGTTT, for which the binding signal turned out to be 1.48 with ETS1 and 1.37 with SPDEF.
ATGGTT: the binding signal worked out at 1.38 with ETS1 and 1.18 with SPDEF.
Turning to CGCCTT, the binding signal with ETS1 worked out at 1.46; with SPDEF it was 1.3.
In the same order, the values of CGTTCA are 1.21 and 1.14.
Turning to GTCTTC, the binding signal came to 1.39 with ETS1 and 1.27 in the experiment with SPDEF.
On the same counts, the results for AAAAGC are 1.17 and 1.07.
In the case of ATAGAA, the binding signal is 1.1 with ETS1 and 1.02 with SPDEF.
In the case of TGTTAA, the binding signal with ETS1 stood at 1.17; in the experiment with SPDEF, 1.09.
Regarding ATGGCC, the binding signal came to 1.51 with ETS1 and 1.32 with SPDEF.
